In the supplement of paper PMC12067093, “Discovery and optimisation of a covalent ligand for TRIM25 and its application to targeted protein ubiquitination” (Chemical Science, 2025):
The other results are listed elsewhere or left out.

Amino acid sequences for entries named in this document (tags omitted). A change or cut given only in a name is not applied to a line headed by its entry.
UniProt O60488: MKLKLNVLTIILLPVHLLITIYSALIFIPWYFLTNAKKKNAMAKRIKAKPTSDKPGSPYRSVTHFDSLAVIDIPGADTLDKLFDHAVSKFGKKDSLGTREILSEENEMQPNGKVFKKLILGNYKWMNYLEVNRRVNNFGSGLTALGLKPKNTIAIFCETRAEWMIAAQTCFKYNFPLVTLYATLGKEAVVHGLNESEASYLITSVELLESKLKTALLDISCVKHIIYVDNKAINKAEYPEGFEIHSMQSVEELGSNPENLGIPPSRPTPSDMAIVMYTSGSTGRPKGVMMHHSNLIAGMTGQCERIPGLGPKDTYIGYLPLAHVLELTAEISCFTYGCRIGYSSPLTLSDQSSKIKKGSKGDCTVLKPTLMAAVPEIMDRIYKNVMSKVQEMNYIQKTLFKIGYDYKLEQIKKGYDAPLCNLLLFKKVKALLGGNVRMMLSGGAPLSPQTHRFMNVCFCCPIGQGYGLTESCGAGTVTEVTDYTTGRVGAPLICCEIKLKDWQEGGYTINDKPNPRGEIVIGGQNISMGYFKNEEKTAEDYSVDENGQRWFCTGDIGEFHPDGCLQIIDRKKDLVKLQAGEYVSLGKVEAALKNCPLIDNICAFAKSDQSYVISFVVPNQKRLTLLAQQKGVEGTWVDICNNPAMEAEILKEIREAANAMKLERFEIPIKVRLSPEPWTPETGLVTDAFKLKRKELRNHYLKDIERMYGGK
UniProt Q9Y4W6: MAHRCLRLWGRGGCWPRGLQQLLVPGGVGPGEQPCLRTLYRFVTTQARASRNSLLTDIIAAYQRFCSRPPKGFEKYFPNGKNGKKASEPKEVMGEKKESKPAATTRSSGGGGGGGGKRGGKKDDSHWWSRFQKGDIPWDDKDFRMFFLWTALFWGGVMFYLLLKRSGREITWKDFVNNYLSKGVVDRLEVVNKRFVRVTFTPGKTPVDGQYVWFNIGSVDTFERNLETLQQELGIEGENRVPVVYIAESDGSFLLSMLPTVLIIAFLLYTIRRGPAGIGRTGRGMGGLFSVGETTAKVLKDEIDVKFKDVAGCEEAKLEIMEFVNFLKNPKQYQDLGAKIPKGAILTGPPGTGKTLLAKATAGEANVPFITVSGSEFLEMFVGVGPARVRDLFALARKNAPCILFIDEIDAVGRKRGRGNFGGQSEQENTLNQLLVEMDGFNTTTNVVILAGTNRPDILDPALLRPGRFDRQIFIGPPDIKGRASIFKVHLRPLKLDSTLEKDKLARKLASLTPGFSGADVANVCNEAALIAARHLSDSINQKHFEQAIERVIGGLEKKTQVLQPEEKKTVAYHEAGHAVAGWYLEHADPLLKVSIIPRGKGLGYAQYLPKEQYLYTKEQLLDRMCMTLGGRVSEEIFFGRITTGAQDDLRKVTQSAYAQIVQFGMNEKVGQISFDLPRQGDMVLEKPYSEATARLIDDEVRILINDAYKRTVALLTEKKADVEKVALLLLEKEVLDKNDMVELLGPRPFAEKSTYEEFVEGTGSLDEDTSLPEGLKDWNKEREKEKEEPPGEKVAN
UniProt Q9BSE5: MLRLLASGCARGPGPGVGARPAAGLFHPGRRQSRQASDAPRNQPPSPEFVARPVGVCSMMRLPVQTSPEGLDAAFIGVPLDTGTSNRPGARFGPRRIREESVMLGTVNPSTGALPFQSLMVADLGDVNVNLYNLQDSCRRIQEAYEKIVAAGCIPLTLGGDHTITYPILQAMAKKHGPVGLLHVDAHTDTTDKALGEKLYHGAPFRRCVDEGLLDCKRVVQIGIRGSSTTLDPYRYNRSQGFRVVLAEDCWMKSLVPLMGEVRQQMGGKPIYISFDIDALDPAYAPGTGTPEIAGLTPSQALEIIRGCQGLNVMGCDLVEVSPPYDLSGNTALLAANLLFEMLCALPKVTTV
UniProt Q9NZ32, whole entry, looked up: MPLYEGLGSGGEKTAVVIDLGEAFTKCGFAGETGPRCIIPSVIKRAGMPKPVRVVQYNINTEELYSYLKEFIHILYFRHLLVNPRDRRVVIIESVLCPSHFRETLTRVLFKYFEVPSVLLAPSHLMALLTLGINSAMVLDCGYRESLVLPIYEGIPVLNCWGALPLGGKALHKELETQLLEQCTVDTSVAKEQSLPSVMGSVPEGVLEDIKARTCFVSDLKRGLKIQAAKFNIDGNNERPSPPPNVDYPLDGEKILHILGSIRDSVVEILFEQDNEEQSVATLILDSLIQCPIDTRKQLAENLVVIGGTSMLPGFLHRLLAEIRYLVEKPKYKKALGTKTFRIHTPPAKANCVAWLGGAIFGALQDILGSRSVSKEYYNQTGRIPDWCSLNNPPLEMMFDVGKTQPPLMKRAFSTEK
UniProt Q9NX46: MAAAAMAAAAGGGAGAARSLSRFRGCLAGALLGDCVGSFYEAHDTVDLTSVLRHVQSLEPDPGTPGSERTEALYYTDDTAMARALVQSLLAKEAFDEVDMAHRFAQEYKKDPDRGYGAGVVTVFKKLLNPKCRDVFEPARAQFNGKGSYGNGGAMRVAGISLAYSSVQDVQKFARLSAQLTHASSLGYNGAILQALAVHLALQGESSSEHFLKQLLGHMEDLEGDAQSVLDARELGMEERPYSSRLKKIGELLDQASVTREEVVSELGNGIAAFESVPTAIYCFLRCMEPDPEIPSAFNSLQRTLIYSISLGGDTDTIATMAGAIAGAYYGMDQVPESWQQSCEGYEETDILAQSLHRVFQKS
UniProt O95490: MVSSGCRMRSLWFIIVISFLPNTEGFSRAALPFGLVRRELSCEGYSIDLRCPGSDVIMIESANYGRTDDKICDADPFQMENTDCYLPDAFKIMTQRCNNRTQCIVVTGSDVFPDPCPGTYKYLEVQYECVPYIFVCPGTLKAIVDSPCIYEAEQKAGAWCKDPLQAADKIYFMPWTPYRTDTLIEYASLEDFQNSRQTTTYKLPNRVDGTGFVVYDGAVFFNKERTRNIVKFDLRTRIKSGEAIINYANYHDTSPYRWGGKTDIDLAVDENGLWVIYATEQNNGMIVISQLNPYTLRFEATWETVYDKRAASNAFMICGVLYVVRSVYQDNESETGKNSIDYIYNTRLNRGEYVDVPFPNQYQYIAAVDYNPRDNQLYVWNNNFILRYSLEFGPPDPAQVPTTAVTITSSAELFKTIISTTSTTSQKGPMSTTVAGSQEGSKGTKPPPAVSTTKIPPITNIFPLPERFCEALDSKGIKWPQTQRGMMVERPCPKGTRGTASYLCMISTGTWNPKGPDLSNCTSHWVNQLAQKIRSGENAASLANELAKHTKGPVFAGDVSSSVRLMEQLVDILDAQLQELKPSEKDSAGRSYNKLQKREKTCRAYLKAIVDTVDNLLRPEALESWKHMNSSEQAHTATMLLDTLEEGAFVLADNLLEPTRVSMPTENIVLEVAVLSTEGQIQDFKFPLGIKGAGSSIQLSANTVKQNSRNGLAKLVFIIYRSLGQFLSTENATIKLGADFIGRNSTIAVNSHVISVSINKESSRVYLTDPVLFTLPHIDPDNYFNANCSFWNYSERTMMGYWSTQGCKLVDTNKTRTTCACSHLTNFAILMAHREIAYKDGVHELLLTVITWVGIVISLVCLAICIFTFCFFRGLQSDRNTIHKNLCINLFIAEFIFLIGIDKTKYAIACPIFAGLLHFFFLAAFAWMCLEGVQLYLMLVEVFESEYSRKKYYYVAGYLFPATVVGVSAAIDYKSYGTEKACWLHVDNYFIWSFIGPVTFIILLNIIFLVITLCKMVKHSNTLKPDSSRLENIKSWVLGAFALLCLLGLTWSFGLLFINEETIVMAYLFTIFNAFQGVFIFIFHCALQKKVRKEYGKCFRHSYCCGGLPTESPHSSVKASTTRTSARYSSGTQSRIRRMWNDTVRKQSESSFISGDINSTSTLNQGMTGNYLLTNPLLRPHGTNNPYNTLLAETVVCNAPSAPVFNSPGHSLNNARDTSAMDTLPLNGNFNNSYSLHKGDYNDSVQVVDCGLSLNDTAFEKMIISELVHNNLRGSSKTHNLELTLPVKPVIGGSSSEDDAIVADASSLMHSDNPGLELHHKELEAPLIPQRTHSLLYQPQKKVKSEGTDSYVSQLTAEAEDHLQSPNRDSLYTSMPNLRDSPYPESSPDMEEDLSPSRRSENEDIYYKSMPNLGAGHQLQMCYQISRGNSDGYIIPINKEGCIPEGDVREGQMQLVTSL
UniProt P55263: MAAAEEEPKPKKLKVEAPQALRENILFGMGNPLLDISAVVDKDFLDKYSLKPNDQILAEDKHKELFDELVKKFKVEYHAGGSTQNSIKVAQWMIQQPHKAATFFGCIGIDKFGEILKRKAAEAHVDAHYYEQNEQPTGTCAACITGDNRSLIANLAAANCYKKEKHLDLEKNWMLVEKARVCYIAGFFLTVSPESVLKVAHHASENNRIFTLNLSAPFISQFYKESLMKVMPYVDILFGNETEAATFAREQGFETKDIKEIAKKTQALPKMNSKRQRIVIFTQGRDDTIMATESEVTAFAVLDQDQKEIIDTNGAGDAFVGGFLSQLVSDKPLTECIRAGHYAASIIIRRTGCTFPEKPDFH
UniProt Q16186: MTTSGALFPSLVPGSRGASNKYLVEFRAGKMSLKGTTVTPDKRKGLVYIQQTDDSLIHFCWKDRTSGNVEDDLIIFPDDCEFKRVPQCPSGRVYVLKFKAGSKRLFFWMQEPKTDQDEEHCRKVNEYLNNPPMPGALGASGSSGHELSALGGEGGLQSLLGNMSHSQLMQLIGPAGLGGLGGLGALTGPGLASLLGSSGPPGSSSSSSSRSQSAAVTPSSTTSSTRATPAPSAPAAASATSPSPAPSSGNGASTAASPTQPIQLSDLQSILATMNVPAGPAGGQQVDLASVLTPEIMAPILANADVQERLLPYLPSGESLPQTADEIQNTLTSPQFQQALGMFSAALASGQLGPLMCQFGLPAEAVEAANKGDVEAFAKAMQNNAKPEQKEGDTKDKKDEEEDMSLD
UniProt Q9H2P0: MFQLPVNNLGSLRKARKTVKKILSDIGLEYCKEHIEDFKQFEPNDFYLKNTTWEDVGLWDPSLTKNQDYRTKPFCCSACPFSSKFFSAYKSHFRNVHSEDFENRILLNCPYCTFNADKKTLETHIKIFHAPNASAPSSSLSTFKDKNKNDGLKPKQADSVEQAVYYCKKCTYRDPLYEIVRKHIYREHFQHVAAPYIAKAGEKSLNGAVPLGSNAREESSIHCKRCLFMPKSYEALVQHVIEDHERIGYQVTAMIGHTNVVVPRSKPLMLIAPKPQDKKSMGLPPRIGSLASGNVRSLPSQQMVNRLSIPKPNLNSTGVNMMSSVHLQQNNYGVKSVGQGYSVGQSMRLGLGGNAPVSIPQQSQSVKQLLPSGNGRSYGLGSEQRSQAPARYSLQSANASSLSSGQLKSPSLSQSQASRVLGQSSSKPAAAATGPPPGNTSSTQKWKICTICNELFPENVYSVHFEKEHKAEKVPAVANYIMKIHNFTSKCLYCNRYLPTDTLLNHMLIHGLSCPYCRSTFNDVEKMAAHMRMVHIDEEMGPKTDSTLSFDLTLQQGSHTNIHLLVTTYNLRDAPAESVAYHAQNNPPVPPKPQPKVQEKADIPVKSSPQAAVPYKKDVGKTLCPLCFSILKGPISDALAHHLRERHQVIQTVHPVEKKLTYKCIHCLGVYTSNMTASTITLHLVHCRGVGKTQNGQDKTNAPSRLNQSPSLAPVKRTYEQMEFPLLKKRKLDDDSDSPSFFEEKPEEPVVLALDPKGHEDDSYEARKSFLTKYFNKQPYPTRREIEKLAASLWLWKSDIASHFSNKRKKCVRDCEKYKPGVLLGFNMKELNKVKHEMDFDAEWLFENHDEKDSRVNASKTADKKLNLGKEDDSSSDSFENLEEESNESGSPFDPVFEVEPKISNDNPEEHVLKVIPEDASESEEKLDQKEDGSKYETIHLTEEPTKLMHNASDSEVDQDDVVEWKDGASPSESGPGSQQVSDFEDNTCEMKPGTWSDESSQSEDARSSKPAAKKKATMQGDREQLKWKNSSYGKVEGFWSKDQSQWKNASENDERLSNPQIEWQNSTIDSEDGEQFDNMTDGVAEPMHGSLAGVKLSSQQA
UniProt P30520: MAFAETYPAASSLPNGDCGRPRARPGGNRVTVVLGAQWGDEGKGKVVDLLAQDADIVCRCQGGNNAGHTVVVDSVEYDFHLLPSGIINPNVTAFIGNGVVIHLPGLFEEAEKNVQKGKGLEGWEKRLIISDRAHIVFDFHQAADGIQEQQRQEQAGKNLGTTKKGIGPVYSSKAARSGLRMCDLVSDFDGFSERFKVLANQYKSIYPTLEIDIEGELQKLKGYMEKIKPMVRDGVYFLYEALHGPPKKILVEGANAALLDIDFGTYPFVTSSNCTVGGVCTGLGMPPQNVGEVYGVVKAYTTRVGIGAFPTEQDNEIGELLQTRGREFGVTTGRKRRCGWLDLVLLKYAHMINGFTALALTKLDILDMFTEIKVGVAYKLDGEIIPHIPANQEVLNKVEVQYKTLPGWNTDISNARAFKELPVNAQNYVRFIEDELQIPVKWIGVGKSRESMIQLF

These targets were tested with Cc1cc(ccc1-c1ccccc1)C(=O)N1CCCN(CC1)C(=O)CCl [compound 10] (assay: probe-labelled cysteine peptide fold change vs DMSO (competition) (log2 fold change); higher = less target engagement (more negative = stronger competition)). Conditions: 50 µM; THP-1; incubation time: 4 h.
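Note: competitive profiling in live THP-1 cells: cysteine peptides tagged with an iodoacetamide desthiobiotin (IA-DTB) probe, intensity after compound treatment relative to DMSO-treated cells.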

Target | probe-labelled cysteine peptide fold change
ACSL4_O60488_303_GVMMHHSNLIAGMTGQCER (UniProt O60488) | -0.0636
ADAM10_O14672_632_TITLQPGSPCNDFR (UniProt O14672) | -0.277
ACTR3_P61158_394_YAVWFGGSMLASTPEFYQVCHTK (UniProt P61158) | 0.256
ADSL_P30566_99_HDVMAHVHTFGHCCPK (UniProt P30566) | -0.406
ADA_P00813_262_LRQENMHFEICPWSSYLTGAWKPDTEHAVIR (UniProt P00813) | -0.181
AFG3L2_Q9Y4W6_313_DVAGCEEAK (UniProt Q9Y4W6) | 0.29
AGBL1_Q96MI9_809_CSLSGEDLNR (UniProt Q96MI9) | -0.0247
AGMAT_Q9BSE5_216_CVDEGLLDCKR (UniProt Q9BSE5) | -0.345
ACTR10_Q9NZ32_388_IPDWCSLNNPPLEMMFDVGK (UniProt Q9NZ32) | -0.546
ADPRHL2_Q9NX46_132_CRDVFEPAR (UniProt Q9NX46) | 0.0456
ADGRL2_O95490_42_RELSCEGYSIDLR (UniProt O95490) | 0.0767
ADK_P55263_160_SLIANLAAANCYK (UniProt P55263) | -0.156
ADRM1_Q16186_88_VPQCPSGR (UniProt Q16186) | -0.0584
ADNP_Q9H2P0_514_YLPTDTLLNHMLIHGLSCPYCR (UniProt Q9H2P0) | 0.393
ADSS_P30520_58_VVDLLAQDADIVCR (UniProt P30520) | -0.246
ACSL4_O60488_564_WFCTGDIGEFHPDGCLQIIDR (UniProt O60488) | 0.17

Some values from the results shown.
probe-labelled cysteine peptide fold change with ADK_P55263_160_SLIANLAAANCYK (UniProt P55263) is entered as -0.156
probe-labelled cysteine peptide fold change with ACSL4_O60488_303_GVMMHHSNLIAGMTGQCER (UniProt O60488) is entered as -0.0636
